Laboratory results reported in patent US6455589B1, “Primary N-hydroxylamines” (The Regents of the University of California, priority 1999, dated 2002).
Some results were stated once for a whole list of compounds, not compound by compound. At least one compound was matched to its structure with a doubt left. Some compounds share one range, which may span the group rather than tell each member.

Tested on: IMR90 cells
Assay: Replicative life span of IMR90 cells (gain in PDLs, delay of senescence)
Format: cell-based, human
Details: 100 μM (added once per 7 days), continuous cultivation, compared to control untreated cells
Procedure: Cultivating IMR90 cells in culture—Normal human […] fibroblasts (IMR90) cells were obtained from the Coriell Institute for Medical Research at a population doubling level (PDL) of 10.85. The PDLs were calculated as log2(D/Do), where D and Do are defined as the density of cells at the time of harvesting and seeding, respectively. Stock cultures were grown in 100 mm Corning tissue culture dishes containing 10 ml of Dulbecco's modified Eagle's medium (DMEM) supplemented with 10% (V/V) fetal bovine serum (Hyclone). Stock cultures were split once a week when near confluence. Cells were harvested by trypsinization for 5 min at 37° C., immediately collected in 5 ml complete DMEM, washed once with 5 ml complete DMEM and incubated for 10-15 min at 37° C. to allow the cells to recover.
To test the effect of hydroxylamines on replicative life span, IMR90 cells were seeded at 0.5×106 per 100 mm dish. N-hydroxylamines (N-t-butyl hydroxylamine, N-benzyl hydroxylamine, N-methyl hydroxyl- amine) were added either individually (final concentration 10 or 100 μM) or in a combination of all three N-hydroxylamines (30 μM each). The cultures were split after 7 days and seeded with fresh medium supplemented with the hydroxylamines described above. In other experiments the medium of the cultures was replaced after 3 days of seeding with fresh medium and with fresh N-hydroxylamines, the split was done as usual after 7 days from seeding. The effect of PBN on life span was tested as in (5).

Row | Compound | Gain in PDLs | Gain in PDLs (listed as N-t-butyl hydroxylamine)
1 | ONCc1ccccc1 [NBHA, N-benzyl hydroxylamine] | 17-20 PDLs | 
2 | CNO [NMHA, N-methyl hydroxylamine] | 17-20 PDLs | 
3 | CC(C)(C)NO [NtBHA, N-t-butyl hydroxylamine] |  | 17-20 PDLs
